A short description of this data set: general procedure: solution-phase peptide synthesis; EDC/HOBt; DSC/DIEA. Particulars: for step yield: late stage modification step.

In the case of “Glutaryl-Val-sulfoPEG4Lys-C52 Benzylic Amine”, the step yield is given as 50%.
For “Glutaryl-Val-PEG24Lys-PABA-C52 Benzylic Amine”, the step yield stood at 61%.
For the setting “conjugation step”, “DBCO-glutaryl-Val-PEG24Lys-PABA-C52 Benzylic Amine” had a conjugation yield of 36%.

These data come from patent publication US11998611B2 (priority 2017, dated 2024).
